In PubChem BioAssay AID1671190 (National Center for Advancing Translational Sciences (NCATS), 2021):
Values joined by “and” are separate entries in the source; they are usually repeats but may differ in a detail not shown here. Equal entries are not always repeated. In all, about 580,000 compounds went through this assay and about 6,100 (1.1%) were called active. This list was built around the results that the source calls inconclusive (neither active nor inactive); the mix of calls is not that of the screen. The call rests on the fitted dose curve; in most records, active means well fitted inhibition curve with a large enough effect; inconclusive means small, poorly fitted or top-dose-only effect, or another doubt; inactive means no such curve, though single readings can be large or run the other way. Potencies of inconclusive entries are doubtful fits and often do not repeat.

Chains of the proteins cited; added tags and fusions are not shown.
UniProt P18054, whole entry, looked up: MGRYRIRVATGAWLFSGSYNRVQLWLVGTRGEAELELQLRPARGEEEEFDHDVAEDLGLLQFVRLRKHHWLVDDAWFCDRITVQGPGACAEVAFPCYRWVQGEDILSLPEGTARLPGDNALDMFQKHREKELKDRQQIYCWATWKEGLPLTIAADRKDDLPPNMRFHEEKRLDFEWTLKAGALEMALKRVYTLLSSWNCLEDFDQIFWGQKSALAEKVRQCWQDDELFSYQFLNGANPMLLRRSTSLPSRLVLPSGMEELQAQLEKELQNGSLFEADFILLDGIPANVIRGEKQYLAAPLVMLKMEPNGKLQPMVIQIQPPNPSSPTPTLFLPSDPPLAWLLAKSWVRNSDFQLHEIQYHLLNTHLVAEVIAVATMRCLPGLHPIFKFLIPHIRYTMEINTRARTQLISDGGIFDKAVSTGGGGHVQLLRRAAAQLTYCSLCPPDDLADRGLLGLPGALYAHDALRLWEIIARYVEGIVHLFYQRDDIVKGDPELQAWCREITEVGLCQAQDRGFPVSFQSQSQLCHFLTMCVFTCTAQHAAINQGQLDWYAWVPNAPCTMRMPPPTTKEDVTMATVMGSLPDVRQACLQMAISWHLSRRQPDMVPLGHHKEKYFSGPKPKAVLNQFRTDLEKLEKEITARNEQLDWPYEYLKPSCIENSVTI

Target: Polyunsaturated fatty acid lipoxygenase ALOX12 (Homo sapiens) (UniProt P18054)
Assay: Primary qHTS assay for inhibitors of human arachidonate 12S-lipoxygenase (ALOX12): Round 2
Conditions: purified 12hLO, xylenol orange hydroperoxide absorbance; activity change, negative = inhibition: at 108 µM (top of the series) unless noted
Procedure, shortened: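 Hydroperoxide product was detected by ferrous iron/xylenol orange as the 573 to 405 nm absorbance ratio. Arachidonic acid at 40 uM (final) was turned over for 30 min at room temperature by 150 nM human 12hLO, pH 7.0 Hepes buffer, after 15 min compound preincubation.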
On the % scale 0 is the no-effect control and ±100 the full control effect; potency means the concentration at half of the fitted maximal effect.

Compound	Potency	activity change, negative = inhibition
COCCNC(=O)C[C@@H]1c2nc(NC(=O)CC(C)(C)C)sc2C[C@@H]2[C@](C)(CO)[C@H](O)CC[C@]21C	inactive	
N#Cc1ccc(COC(=O)c2cc3ccccc3[nH]2)cc1	inactive	
O=C(COC(=O)CNC(=O)c1ccccc1F)Nc1ncc(Cl)cc1Cl	active: 39.8 µM	
CCCN(CCC)CC(O)Cn1cc(/C=C/C(=O)c2ccc(OCC)cc2)c2ccccc21 (stereo not drawn)	inconclusive: 44.7 µM [inhibitor, partial curve, poor fit]	
CN(CC(=O)Nc1cccc(F)c1)C(=O)c1cccnc1Sc1ccccc1Cl	inactive	
CCN(C(=O)c1ccco1)c1nc(-c2ccccc2)cs1	inactive	
O=C(CN1CCSCC1)N/N=C/c1ccc(F)cc1	inconclusive: 0.398 µM [inhibitor, full curve, poor fit]	
O=C(O)c1cc(N/N=C2/CC(c3ccccc3)Oc3ccccc32)ccc1Cl (stereo not drawn)	inconclusive: 50.1 µM [inhibitor, partial curve, poor fit]	
CN1CCN(C(=S)Nc2cccc(S(=O)(=O)N(C)C)c2)CC1	inconclusive: 112 µM [inhibitor, partial curve, poor fit]	
Nc1[nH]c(C(=O)c2ccccc2)c(-c2ccc(Br)cc2)c1C(=O)c1ccccc1	inconclusive: 44.7 µM [inhibitor, partial curve, poor fit]	
O=c1[nH]c(=O)n(Cc2ccco2)c2nccc(-c3ccc(-c4ccccc4)cc3)c12	inactive	
COc1ccccc1C1C=C(c2ccc(Cl)cc2)Nc2nc(-c3ccc(Cl)cc3)nn21 (stereo not drawn)	inconclusive: 112 µM [inhibitor, single point]	
Cc1[nH]c(=S)c(C#N)c2c1CCCC2	inconclusive: 39.8 µM [inhibitor, partial curve, poor fit]	
c1ccc(-c2nn3c(c2-c2ccnc4cc(OCCN5CCOCC5)ccc24)CCC3)nc1	inactive	
Cc1ccc2oc(=O)n(CCNC(=O)Nc3ccc(C)c(F)c3)c2c1	inconclusive: 100 µM [inhibitor, partial curve, poor fit] and inconclusive: 44.7 µM [inhibitor, partial curve, poor fit]	
C=CCOc1ccc(C2C(C(=O)c3ccco3)=C(O)C(=O)N2c2nnc(C)s2)cc1 (stereo not drawn)	inconclusive: 39.8 µM [inhibitor, partial curve, poor fit]	
CCOC(=O)c1[nH]c2ccc(OC)cc2c1NC(=O)c1ccc(OC)c(OC)c1	inactive	
CCc1c(-c2cccc(Br)c2)ncn1Cc1cccc(-c2ccccc2)c1	inconclusive: 50.1 µM [inhibitor, partial curve, poor fit]	
Cc1ccc(CN2CCN(c3nc4c(c(=O)[nH]c(=O)n4C)n3C/C=C/c3ccccc3)CC2)cc1	inactive	
CCCCNCC1C(Oc2ccc(Cl)cc2)C(=O)N1c1ccccc1C (stereo not drawn)	inconclusive: 39.8 µM [inhibitor, partial curve, poor fit]	
Nc1c(C(=O)OCC(=O)Nc2ccc(Cl)cc2[N+](=O)[O-])[nH]c(=O)[nH]c1=O	inactive	
CCOC(=O)C1CCN(C(=O)c2cn(-c3ccccc3)nc2-c2ccc(Cl)cc2)CC1	inconclusive: 126 µM [inhibitor, partial curve, poor fit]	
CCN(CC)c1ccc(NC(=O)c2ccc(S(=O)(=O)Nc3ccccc3C)cc2)cc1	inconclusive: 7.94 µM [inhibitor, full curve]	

Compound	Potency	activity change, negative = inhibition
S=C(NCc1cccs1)Nc1cccc(Cl)c1Cl	inconclusive: 44.7 µM [inhibitor, partial curve, poor fit]	
COc1ccc(C(=O)N/N=c2\oc3ccccc3cc2C(=O)NCc2ccccc2)cc1	inactive	
NS(=O)(=O)c1ccc(CCNC(=O)c2ccc(Br)s2)cc1	inconclusive: 44.7 µM [inhibitor, partial curve, poor fit]	
CC1CC(C)CN(C(=O)c2cc3c(=O)n4ccccc4nc3s2)C1 (stereo not drawn)	inactive	
CN(C)/N=C/c1ccc(/C=N/NC(N)=S)o1	inactive	
COc1ccc(CCCO[C@@H](Cn2ccnc2)c2ccc(OC)cc2)cc1	inconclusive: 35.5 µM [inhibitor, single point]	
COCCn1c(SCC(=O)c2ccc(Cl)cc2)nnc1C(C)C	inconclusive: 11.2 µM [inhibitor, partial curve, poor fit]	
COCCn1c(SCC(=O)Nc2nc3ccccc3s2)nnc1-c1ccoc1C	inconclusive: 2 µM [inhibitor, full curve, poor fit]	
CCN(CC)C(=S)SC/C(=N/Nc1ccc(Br)cc1)c1ccccc1	active: 7.94 µM	
Cc1cc(/C=C2\NC(=O)NC2=O)c(C)n1-c1cccnc1	inactive	
CC(SC(=S)N(C)C)C(=O)NC(C)c1ccc(F)cc1 (stereo not drawn)		inconclusive: -60.4% [inhibitor]
Cc1ccc(S(=O)(=O)NCCC(=O)NCCCSc2ccccc2)cc1	inactive	
O=C(Cc1ccc(Br)cc1)NCc1nnc2ccc(-c3ccc(F)cc3)nn12	inactive	
CCn1c(C)c(C)c2cc(C(=O)N3CCc4ccccc4C3)ccc21	inactive	
Cc1ccc(S(=O)(=O)N2CCN(Cc3cc(=O)oc4cc(O)c(Cl)cc34)CC2)cc1	active: 44.7 µM	
CC(C)(C)c1ccc(C(=O)Nc2ccc(Cl)cc2F)cc1	inactive	
CNC(=S)N(Cc1ccc(OC)cc1)C1CC(=O)N(c2ccc(OC)cc2)C1=O (stereo not drawn)	inconclusive: 50.1 µM [inhibitor, partial curve, poor fit]	
COc1ccc(-c2noc([C@@H](C)NC(=O)Cc3ccccc3)c2C(=O)O)cc1	inconclusive: 17.8 µM [inhibitor, full curve]	
CCCc1cc(C(=O)Cc2ccc(C(=O)OCC)o2)c(O)cc1O	inconclusive: 35.5 µM [inhibitor, partial curve, poor fit]	
Cn1c(Oc2ccc3cc(Br)ccc3c2)c(C#N)c(=O)n(C)c1=O	inconclusive: 50.1 µM [inhibitor, partial curve, poor fit]	
CCCCN1CC(COCc2ccccc2)Oc2cccc(Oc3ccc(SC)c(C)c3)c2S1(=O)=O (stereo not drawn)	inconclusive: 31.6 µM [inhibitor, single point]	
CCOc1ccc(C)cc1S(=O)(=O)n1ccnc1	inconclusive: 44.7 µM [inhibitor, partial curve, poor fit]	
Cc1ccc(S(=O)(=O)N2CCCN(C)CC2)cc1	inactive	

Structural class: the compounds so far containing four or more nitrogen atoms
Compound	Potency	activity change, negative = inhibition
CN1CCN(C(=S)Nc2cccc(S(=O)(=O)N(C)C)c2)CC1	inconclusive: 112 µM [inhibitor, partial curve, poor fit]	
COc1ccccc1C1C=C(c2ccc(Cl)cc2)Nc2nc(-c3ccc(Cl)cc3)nn21 (stereo not drawn)	inconclusive: 112 µM [inhibitor, single point]	
c1ccc(-c2nn3c(c2-c2ccnc4cc(OCCN5CCOCC5)ccc24)CCC3)nc1	inactive	
Cc1ccc(CN2CCN(c3nc4c(c(=O)[nH]c(=O)n4C)n3C/C=C/c3ccccc3)CC2)cc1	inactive	
Nc1c(C(=O)OCC(=O)Nc2ccc(Cl)cc2[N+](=O)[O-])[nH]c(=O)[nH]c1=O	inactive	
CN(C)/N=C/c1ccc(/C=N/NC(N)=S)o1	inactive	
COCCn1c(SCC(=O)Nc2nc3ccccc3s2)nnc1-c1ccoc1C	inconclusive: 2 µM [inhibitor, full curve, poor fit]	
Cc1cc(/C=C2\NC(=O)NC2=O)c(C)n1-c1cccnc1	inactive	
O=C(Cc1ccc(Br)cc1)NCc1nnc2ccc(-c3ccc(F)cc3)nn12	inactive	

(cont.)

Compound	Potency	activity change, negative = inhibition
COc1ccc(S(=O)(=O)N2CCN(CC(=O)Nc3ccc(C)c(F)c3)CC2)cc1	inactive	
O=C1C2CCCCC2C(=O)N1c1ccc(S(=O)(=O)Nc2ncccn2)cc1 (stereo not drawn)	inconclusive: 89.1 µM [inhibitor, partial curve, poor fit]	
COc1cc(C/C=C\c2ccccc2)c(OC)cc1O	inconclusive: 35.5 µM [inhibitor, partial curve, poor fit]	
C=C(CS(=O)(=O)c1ccc(C)cc1)S(=O)(=O)c1ccc(C)cc1	inconclusive: 50.1 µM [inhibitor, partial curve, poor fit]	
CCC(C)NC(=O)NC1CCN(c2nc3ccccc3n(C)c2=O)CC1 (stereo not drawn)	inactive	
COc1ccc(-c2coc3cc(OCC(=O)NCCC4=CCCCC4)ccc3c2=O)cc1OC	inactive	
O=C(N/N=C/C1CC=CCC1)c1cc(Br)ccc1O (stereo not drawn)	inactive	
CC(C(=O)Nc1cccc(C#N)c1)n1nnc(-c2ccccc2Cl)n1 (stereo not drawn)	inconclusive: 1.58 µM [inhibitor, full curve, poor fit]	
Cc1nc(NC(=O)C(Cl)Cl)sc1C(=O)N(C)C	inconclusive: 100 µM [inhibitor, partial curve, poor fit]	
COc1ccc(N=C2NC(=O)/C(=C\C=C\c3ccco3)S2)cc1	inconclusive: 5.01 µM [inhibitor, full curve, poor fit]	
CCCN(C)C1CN(Cc2cn(CCCOC)nn2)S(=O)(=O)C1 (stereo not drawn)	inconclusive: 70.8 µM [inhibitor, partial curve, poor fit]	
COc1ccc(CCNC(=O)CCc2c(C)nc3c(-c4ccc(F)cc4)c(C)nn3c2C)cc1OC	inconclusive: 158 µM [inhibitor, partial curve, poor fit]	
O=C(CCc1c[nH]c2ccccc12)NC12CC3CC(CC(C3)C1)C2	inconclusive: 79.4 µM [inhibitor, single point]	
C/C(=N\NC(=S)NCc1ccccc1)c1ccccc1F	active: 35.5 µM	
CC1=C(C(=O)OC2CCCCCC2)C(c2ccccc2Cl)CC(=O)N1 (stereo not drawn)	inactive	
COc1cccc(C(=O)/C(C#N)=C\c2ccc(F)c(Br)c2)c1	active: 17.8 µM	
CC(Sc1nc(N)cc(=O)[nH]1)C(=O)N1CCOCC1 (stereo not drawn)	inconclusive: 63.1 µM [inhibitor, partial curve, poor fit]	
O=C(Nc1ccc(Br)cc1)c1ccc(F)c(S(=O)(=O)N2CCN(c3ccccn3)CC2)c1	inactive	
Cc1ccc(-c2nc3ccccc3c(C(=O)O)c2C)cc1	inconclusive: 89.1 µM [inhibitor, single point]	
CCN(CC)C(=O)C1=C(C)N(CCC2=CCCCC2)C(=O)C(CC(=O)NCc2ccco2)C1 (stereo not drawn)	inconclusive: 31.6 µM [inhibitor, partial curve, poor fit]	
COc1cc(OC)cc(-c2c(C#Cc3ccsc3)c3cc(-c4ccc5c(c4)OCO5)ccc3n2C)c1	inconclusive: 112 µM [inhibitor, single point]	
COc1ccc(-c2nc(CSCC(=O)N3CCN(c4cccc(C)c4)C(C)C3)c(C)o2)cc1OC (stereo not drawn)	inconclusive: 79.4 µM [inhibitor, single point]	

Reprinted at random: 2 records from the list, in no set order.
Compound	Potency	activity change, negative = inhibition
COc1ccc(-c2coc3cc(OCC(=O)NCCC4=CCCCC4)ccc3c2=O)cc1OC	inactive	
O=C1C2CCCCC2C(=O)N1c1ccc(S(=O)(=O)Nc2ncccn2)cc1 (stereo not drawn)	inconclusive: 89.1 µM [inhibitor, partial curve, poor fit]	
